The values below come from doi:10.64898/2025.12.17.695032.

Sequences of proteins named here, by UniProt entry; tags and fusion partners are left off. A change or cut given only in a name is not applied to a line headed by its entry.
UniProt P01127: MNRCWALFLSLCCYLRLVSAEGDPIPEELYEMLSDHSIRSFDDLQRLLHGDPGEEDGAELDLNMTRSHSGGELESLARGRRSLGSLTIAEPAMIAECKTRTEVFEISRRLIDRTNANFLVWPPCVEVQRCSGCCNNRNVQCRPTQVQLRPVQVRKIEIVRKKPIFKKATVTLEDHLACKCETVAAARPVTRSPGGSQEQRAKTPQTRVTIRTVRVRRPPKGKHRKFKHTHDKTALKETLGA

No constants are given. Whether binding was seen depends on the method and setting. Binding seen in cells or lysates may run through a third protein. Binding calls can cover weak binding; strength is not graded here. Tags and fused reporters may be left off the sequences shown.

The assay concerns the target His-tagged PDGF-B (UniProt P01127). Put plainly: co-IP.

B1: FLAG epitope-tagged SCUBE2 (protein, UniProt Q9NQ36 32-999)
chain: VPPGRGRAAGPQEDVDECAQGLDDCHADALCQNTPTSYKCSCKPGYQGEGRQCEDIDECGNELNGGCVHDCLNIPGNYRCTCFDGFMLAHDGHNCLDVDECLENNGGCQHTCVNVMGSYECCCKEGFFLSDNQHTCIHRSEEGLSCMNKDHGCSHICKEAPRGSVACECRPGFELAKNQRDCILTCNHGNGGCQHSCDDTADGPECSCHPQYKMHTDGRSCLEREDTVLEVTESNTTSVVDGDKRVKRRLLMETCAVNNGGCDRTCKDTSTGVHCSCPVGFTLQLDGKTCKDIDECQTRNGGCDHFCKNIVGSFDCGCKKGFKLLTDEKSCQDVDECSLDRTCDHSCINHPGTFACACNRGYTLYGFTHCGDTNECSINNGGCQQVCVNTVGSYECQCHPGYKLHWNKKDCVEVKGLLPTSVSPRVSLHCGKSGGGDGCFLRCHSGIHLSSDVTTIRTSVTFKLNEGKCSLKNAELFPEGLRPALPEKHSSVKESFRYVNLTCSSGKQVPGAPGRPSTPKEMFITVEFELETNQKEVTASCDLSCIVKRTEKRLRKAIRTLRKAVHREQFHLQLSGMNLDVAKKPPRTSERQAESCGVGQGHAENQCVSCRAGTYYDGARERCILCPNGTFQNEEGQMTCEPCPRPGNSGALKTPEAWNMSECGGLCQPGEYSADGFAPCQLCALGTFQPEAGRTSCFPCGGGLATKHQGATSFQDCETRVQCSPGHFYNTTTHRCIRCPVGTYQPEFGKNNCVSCPGNTTTDFDGSTNITQCKNRRCGGELGDFTGYIESPNYPGNYPANTECTWTINPPPKRRILIVVPEIFLPIEDDCGDYLVMRKTSSSNSVTTYETCQTYERPIAFTSRSKKLWIQFKSNEGNSARGFQVPYVTYDEDYQELIEDIVRDGRLYASENHQEILKDKKLIKALFDVLAHPQNYFKYTAQESREMFPRSFIRLLRSKVSRFLRPYK
As to B1, the binding entry is given as “binds”.
